From patent US11882834B2, “Microbiocidal thiazole derivatives” (SYNGENTA PARTICIPATIONS AG, priority 2017, dated 2024)
Some entries share one result that the patent states for a list of compounds.

What was measured:
[1] = system: Blumeria graminis f. Sp. Tritici (Erysiphe graminis f. Sp. Tritici); experiment: Blumeria graminis f. sp. tritici / wheat / leaf disc preventative (powdery mildew on wheat); assay type: in vivo; details: 200 ppm in the formulation, wheat leaf segments cv. Kanzler, compared to untreated, 6-8 days after application
[2] = system: Monographella nivalis (Microdochium nivale); experiment: Monographella nivalis (Microdochium nivale) / liquid culture (foot rot cereals); assay type: cell-based; details: 200 ppm in the formulation; liquid culture (PDB), growth determined photometrically 4-5 days after application; compared to untreated
[3] = system: Mycosphaerella graminicola (Septoria tritici); experiment: Mycosphaerella graminicola (Septoria tritici) / liquid culture (Septoria blotch); assay type: cell-based; details: 200 ppm in the formulation; liquid culture (PDB), growth determined photometrically 4 to 5 days after application; compared to untreated
[4] = system: Botryotinia fuckeliana (Botrytis cinerea); experiment: Botryotinia fuckeliana (Botrytis cinerea) / liquid culture (gray mould); assay type: cell-based; details: 200 ppm in the formulation; liquid culture (Vogels broth), growth determined photometrically 3-4 days after application; compared to untreated
[5] = system: Puccinia recondita f. Sp. Tritici; experiment: Puccinia recondita f. sp. tritici / wheat / leaf disc preventative (brown rust); assay type: in vivo; details: 200 ppm in the formulation, wheat leaf segments cv. Kanzler, compared to untreated, 7-9 days after application
[6] = system: Glomerella lagenarium (Colletotrichum lagenarium); experiment: Glomerella lagenarium (Colletotrichum lagenarium) / liquid culture (anthracnose); assay type: cell-based; details: 200 ppm in the formulation; liquid culture (PDB), growth measured photometrically 3 to 4 days after application; compared to untreated

Measured: disease control

Cc1sc(Nc2cc(F)nc(F)c2)nc1C(=O)NC1CCC1(C)C (stereo not drawn) [Compound I.r.19, 2-[(2,6-difluoro-4-pyridyl)amino]-N-(2,2-dimethylcyclobutyl)-5-methyl-thiazole-4-carboxamide]
at least 80%: all assays above

Cc1sc(Nc2cc(F)nc(F)c2)nc1C(=O)NC1CCC1c1ccc(F)cc1F (stereo not drawn) [I.m.19, N-[2-(2,4-difluorophenyl)cyclobutyl]-2-[(2,6-difluoro-4-pyridyl)amino]-5-methyl-thiazole-4-carboxamide]
at least 80%: [2]

Cc1sc(Nc2cc(F)nc(F)c2)nc1C(=O)NC1CCC1C (stereo not drawn) [I.c.19, 2-[(2,6-difluoro-4-pyridyl)amino]-5-methyl-N-(2-methylcyclobutyl)thiazole-4-carboxamide]
not listed: [2]
at least 80%: all other assays above

Cc1sc(Nc2cc(F)nc(F)c2)nc1C(=O)NC1CCC1c1ccc(Cl)cc1 (stereo not drawn) [I.k.19, N-[2-(4-chlorophenyl)cyclobutyl]-2-[(2,6-difluoro-4-pyridyl)amino]-5-methyl-thiazole-4-carboxamide]
at least 80%: [3]

Cc1ccsc1C1CCC1NC(=O)c1nc(Nc2cc(F)nc(F)c2)sc1C (stereo not drawn) [I.o.19, 2-[(2,6-difluoro-4-pyridyl)amino]-5-methyl-N-[2-(3-methyl-2-thienyl)cyclobutyl] thiazole-4-carboxamide]
at least 80%: [2] | [3] | [6]

Cc1sc(Nc2cc(F)nc(F)c2)nc1C(=O)NC1CCC1 [I.a.19, N-cyclobutyl-2-[(2,6-difluoro-4-pyridyl)amino]-5-methyl-thiazole-4-carboxamide]
not listed: [4]
at least 80%: all other assays above
